Measurements from US7745657B2, “D-homoandrosta-17-yl carbamate derivatives as selective glucocorticoid receptor ligands” (Merck Sharp & Dohme Corp., priority 2005, dated 2010).
Some of these results come from one statement about several compounds together.

Target: T1, glucocorticoid receptor (Homo sapiens, UniProt P04150)
T1 construct: The supernatant is used to set-up assay right away; host or cells: MDA-MB-453 cell lysate supernatant
T1 sequence (P04150 1-777): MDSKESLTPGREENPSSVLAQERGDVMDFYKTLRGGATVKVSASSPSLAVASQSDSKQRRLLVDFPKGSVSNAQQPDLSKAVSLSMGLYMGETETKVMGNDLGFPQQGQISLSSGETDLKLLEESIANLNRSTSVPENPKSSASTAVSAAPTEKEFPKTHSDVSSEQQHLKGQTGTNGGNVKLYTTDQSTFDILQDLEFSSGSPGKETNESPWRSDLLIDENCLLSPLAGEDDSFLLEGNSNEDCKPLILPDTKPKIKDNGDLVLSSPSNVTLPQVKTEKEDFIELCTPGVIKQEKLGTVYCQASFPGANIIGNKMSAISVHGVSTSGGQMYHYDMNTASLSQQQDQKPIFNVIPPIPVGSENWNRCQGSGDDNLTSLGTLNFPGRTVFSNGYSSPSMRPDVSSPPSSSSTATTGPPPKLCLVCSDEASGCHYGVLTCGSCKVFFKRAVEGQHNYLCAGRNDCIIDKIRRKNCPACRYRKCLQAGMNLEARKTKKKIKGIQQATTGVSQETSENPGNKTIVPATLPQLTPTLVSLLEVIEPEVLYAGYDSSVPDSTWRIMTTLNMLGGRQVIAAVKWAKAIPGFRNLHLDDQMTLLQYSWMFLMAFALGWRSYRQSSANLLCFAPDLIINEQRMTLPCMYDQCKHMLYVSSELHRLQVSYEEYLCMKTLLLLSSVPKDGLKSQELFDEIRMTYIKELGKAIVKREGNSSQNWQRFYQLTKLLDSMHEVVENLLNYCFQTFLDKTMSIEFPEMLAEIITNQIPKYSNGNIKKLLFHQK
Experiment: Ligand binding assay (3H-dexamethasone displacement, MDA-MB-453 cell lysate)
Settings: 3H-DEX trace, 4° C. overnight, IC50s calculated using DEX as a reference

CCCC(C)NC(=O)OC1(CO)C(=O)C2(C)CC(O)C3(F)C(CCC4=CC(=O)C=CC43C)C2CC1C [Example 2, (11β,16β,17α)-9-fluoro-11-hydroxy-16-methyl-3,17a-dioxo-17-(hydroxymethyl)-D-homoandrosta-1,4-dien-17-yl-(2-pentyl)carbamate]
IC50: < 1000 nM

CC(=O)OCC1(OC(=O)NC23CC4CC(CC(C4)C2)C3)C(=O)C2(C)CC(O)C3(F)C(CCC4=CC(=O)C=CC43C)C2CC1C [Example 6, (11β,16β,17α)-9-fluoro-11-hydroxy-16-methyl-3,17a-dioxo-17-[(acetyloxy)methyl]-D-homoandrosta-1,4-dien-17-yl-(1-adamantyl)carbamate]
IC50: < 1000 nM

CC(=O)OCC1(OC(=O)NC23CC4CC(CC(C4)C2)C3)C(=O)C2(C)CC(OC(=O)C(F)(F)F)C3(F)C(CCC4=CC(=O)C=CC43C)C2CC1C [Example 5, (11β,16β,17α)-9-fluoro-11-trifluoroacetoxy-16-methyl-3,17a-dioxo-17-[(acety1oxy)methy1]-D-homoandrosta-1,4-dien-17-yl-(1-adamantyl)carbamate]
IC50: < 1000 nM

C[C@H]1CC2C3CCC4=CC(=O)C=C[C@]4(C)[C@@]3(F)[C@@H](O)C[C@]2(C)C(=O)[C@]1(CO)OC(=O)NC12CC3CC(CC(C3)C1)C2 (stereo partly drawn) [Example 1, (11β,16β,17α)-9-fluoro-11-hydroxy-16-methyl-3,17a-dioxo-17-(hydroxymethyl)-d-homoandrosta-1,4-dien-17-yl-(1-adamantyl)carbamate]
IC50: < 1000 nM

CC1CC2C3CCC4=CC(=O)C=CC4(C)C3(F)C(OC(=O)C(F)(F)F)CC2(C)C(=O)C1(CO)OC(=O)NC12CC3CC(CC(C3)C1)C2 [Example 7, (11β,16β,17α)-9-fluoro-11-trifluoroacetoxy-16-methyl-3,17a-dioxo-17-(hydroxymethyl)-D-homoandrostra-1,4-dien-17-yl-(1-adamantyl)carbamate]
IC50: < 1000 nM

CCCC(C)CNC(=O)OC1(CO)C(=O)C2(C)CC(O)C3(F)C(CCC4=CC(=O)C=CC43C)C2CC1C [Example 3, (11β,16β,17α)-9-fluoro-11-hydroxy-16-methyl-3,17a-dioxo-17-(hydroxymethyl)-D-homoandrosta-1,4-dien-17-yl-(2-methyl-pentyl)carbamate]
IC50: < 1000 nM

CC1CC2C3CCC4=CC(=O)C=CC4(C)C3(F)C(O)CC2(C)C(=O)C1(CO)OC(=O)NC1CCCCC1 [Example 9, (11β,16β,17α)-9-fluoro-11-hydroxy-16-methyl-3,17a-dioxo-17-(hydroxymethyl)-D-homoandrosta-1,4-dien-17-yl-(cyclohexyl)carbamate]
IC50: < 1000 nM
